{"sequences": {"note": "Protein sequences, listed by entry. Tags and fused reporters are not part of them. Lines headed by an entry give the natural chain unless they say otherwise; changes in a name come on top.", "UniProt P18054": "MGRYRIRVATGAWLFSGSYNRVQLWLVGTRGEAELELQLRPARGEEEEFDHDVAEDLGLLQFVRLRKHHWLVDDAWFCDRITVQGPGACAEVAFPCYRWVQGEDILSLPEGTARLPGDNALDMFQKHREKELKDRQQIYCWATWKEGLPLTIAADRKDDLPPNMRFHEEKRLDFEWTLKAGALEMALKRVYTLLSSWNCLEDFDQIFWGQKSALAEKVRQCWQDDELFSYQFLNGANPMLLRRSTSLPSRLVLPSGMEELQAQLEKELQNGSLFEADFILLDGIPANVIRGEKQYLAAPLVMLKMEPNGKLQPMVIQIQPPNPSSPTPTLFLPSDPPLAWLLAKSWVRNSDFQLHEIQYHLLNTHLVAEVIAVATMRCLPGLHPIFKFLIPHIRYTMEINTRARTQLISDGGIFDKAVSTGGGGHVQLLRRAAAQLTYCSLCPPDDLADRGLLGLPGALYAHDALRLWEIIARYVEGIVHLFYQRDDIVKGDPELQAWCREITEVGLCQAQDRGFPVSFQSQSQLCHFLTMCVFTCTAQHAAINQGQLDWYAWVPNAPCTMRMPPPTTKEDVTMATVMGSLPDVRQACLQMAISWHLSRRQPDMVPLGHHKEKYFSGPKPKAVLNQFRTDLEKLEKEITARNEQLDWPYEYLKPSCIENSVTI"}, "source": "PubChem BioAssay AID1671190", "about": "(National Center for Advancing Translational Sciences (NCATS), 2021)", "note": "“And” between values parts separate entries of the source, which are not always exact repeats. Equal entries are not always repeated. Hit rate of the full screen: of about 580,000 compounds, about 6,100 (1.1%) were called active. Inconclusive results, whose numbers are uncertain, are shown with a selection of clear calls. Calls follow the shape of the dose curve; as a rule, active = well fitted inhibition curve with a large enough effect; inconclusive = small, poorly fitted or top-dose-only effect, or another doubt; inactive = no such curve, though single readings can be large or run the other way. A potency beside an inconclusive call is a rough fit, not a confirmed value. Potency is read from the fitted curve at half-maximal effect."}
{"target": "Polyunsaturated fatty acid lipoxygenase ALOX12 (Homo sapiens) (UniProt P18054)", "experiment": "Primary qHTS assay for inhibitors of human arachidonate 12S-lipoxygenase (ALOX12): Round 2", "settings": "purified 12hLO, xylenol orange hydroperoxide absorbance; series mostly up to 108 µM", "procedure,_shortened": "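Purified human 12hLO at 150 nM in 25 mM Hepes, 0.01% Triton X-100, pH 7.0, preincubated 15 min at room temperature with compound. Reaction started with 40 uM arachidonic acid, 30 min at room temperature. Hydroperoxide measured by Fe-xylenol orange, 573/405 nm absorbance ratio.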"}
{"smiles": "O=[N+]([O-])c1ccccc1Oc1ccc(Cl)c2cccnc12", "Potency": "inactive"}
{"smiles": "COc1ccc(N2C(=O)CCC2(C#N)c2ccc(Br)cc2)cc1", "note": "(stereo not drawn)", "Potency": "inconclusive: 31.6 µM [inhibitor, partial curve, poor fit]"}
{"smiles": "COc1ccc(C(CCNCc2ccc(N(C)C)cc2)C(C)C)cc1", "note": "(stereo not drawn)", "Potency": "inconclusive: 112 µM [inhibitor, single point]"}
{"smiles": "O=[N+]([O-])c1cccc(SSc2cccc([N+](=O)[O-])c2)c1", "Potency": "active: 2.51 µM"}
{"smiles": "Cc1ccc(CNC(=O)CSc2nc(N3CCCCC3)nc(N3CCCCC3)n2)cc1", "Potency": "inconclusive: 100 µM [inhibitor, single point]"}
{"smiles": "O=C(Nc1ccccc1Cl)c1cccc(NC(=O)c2cccs2)c1", "Potency": "inactive"}
{"smiles": "COc1ccccc1OCC(=O)Nc1nc(-c2ccc(Br)cc2)ns1", "Potency": "inconclusive: 50.1 µM [inhibitor, partial curve, poor fit]"}
{"smiles": "COc1ccc(C2/C=C\\CN(CC(C)C)CC(=O)N2Cc2cccc(F)c2)cc1", "note": "(stereo not drawn)", "Potency": "inconclusive: 79.4 µM [inhibitor, single point]"}
{"smiles": "Cc1ccc(NC(=O)C2CCN(S(=O)(=O)c3c(C)noc3/C=C/c3ccco3)CC2)cc1C", "Potency": "inconclusive: 100 µM [inhibitor, partial curve, poor fit]"}
{"smiles": "COc1ccc(CCNC(=O)c2ccc(-c3cccc([N+](=O)[O-])c3)o2)cc1OC", "Potency": "inconclusive: 100 µM [inhibitor, partial curve, poor fit]"}
{"smiles": "CC(C)N(Cc1ccccc1)C(=O)CCS(=O)(=O)c1ccc2c(c1)oc(=O)n2C", "Potency": "inactive"}
{"smiles": "CC1=C[C@@H](CNS(=O)(=O)c2ccccc2)[C@H](C(C)C)C[C@H]1CC(=O)NCCN(C)C", "Potency": "inactive"}
{"smiles": "CCCNC(=O)Nc1ccc(NC(C)=O)cc1", "Potency": "inactive"}
{"smiles": "COc1ccc(CNc2ccc(S(N)(=O)=O)cc2)cc1", "Potency": "inactive"}
{"smiles": "CCc1ccc(NC(=O)CCCN2C(=S)NC(C)(C)CC2C)cc1", "note": "(stereo not drawn)", "Potency": "inconclusive: 39.8 µM [inhibitor, partial curve]"}
{"smiles": "Cc1cc(/N=C/C=C2\\N(C)c3ccccc3C2(C)C)n(CCC#N)n1", "Potency": "inactive"}
{"smiles": "Cc1ccc(Cn2c(C)c(CNCCCc3ccccc3)c(C(=O)O)c2C)cc1", "Potency": "inconclusive: 100 µM [inhibitor, partial curve, poor fit]"}
{"smiles": "O=C1CC(c2ccc(O)c(O)c2)Oc2cc(O)cc(O)c21", "note": "(stereo not drawn)", "Potency": "active: 6.31 µM"}
{"smiles": "CCN(CC(=O)NC(=O)Nc1ccccc1)C(C)c1ccc(C#N)cc1", "note": "(stereo not drawn)", "Potency": "inconclusive: 56.2 µM [inhibitor, single point]"}
{"smiles": "CCOC(=O)c1cc2cc(NC(=O)C3CC(=O)Nc4ccccc43)ccc2s1", "note": "(stereo not drawn)", "Potency": "inconclusive: 0.316 µM [inhibitor, full curve, poor fit]"}
{"smiles": "COc1cccc(Cn2c(=O)cnc3cnc(Nc4ccccc4)nc32)c1", "Potency": "inconclusive: 39.8 µM [inhibitor, single point]"}
{"smiles": "CCOCCn1c(CN2CCN(C(=O)OCC)CC2)nc2c1c(=O)n(C)c(=O)n2C", "Potency": "inconclusive: 8.91 µM [inhibitor, full curve]"}
{"smiles": "COc1ccc(C(=O)NCCc2csc(-c3cccs3)n2)cc1", "Potency": "inactive"}
{"smiles": "Cc1ccc(C)c(Cc2c(C)nc3c(C(=O)NCc4ccc5c(c4)OCO5)cnn3c2C)c1", "Potency": "inconclusive: 112 µM [inhibitor, partial curve, poor fit]"}
{"smiles": "Cc1cc(=O)n2[nH]c(C)c(-c3ccccc3)c2n1", "Potency": "inconclusive: 12.6 µM [inhibitor, partial curve, poor fit]"}
{"smiles": "O=C(c1cccc(N2CCNC2=O)c1)N1CCCC(CCc2ccccc2F)C1", "note": "(stereo not drawn)", "Potency": "inconclusive: 100 µM [inhibitor, partial curve, poor fit]"}
{"smiles": "CCOC(=O)C1Cc2ccccc2CN1", "note": "(stereo not drawn)", "Potency": "inconclusive: 44.7 µM [inhibitor, partial curve, poor fit]"}
{"smiles": "CCCCN1C(=O)C(=O)N(Cc2ncc(-c3ccc(F)cc3)o2)C1=O", "Potency": "inconclusive: 89.1 µM [inhibitor, single point]"}
{"smiles": "O=C(CN1CCCC1c1nc2ccccc2s1)NC(=O)Nc1ccc2c(c1)OCCO2", "note": "(stereo not drawn)", "Potency": "inconclusive: 79.4 µM [inhibitor, partial curve, poor fit]"}
{"smiles": "CC(Sc1nc(CN2CCOCC2)nc2ccccc12)C(=O)N1CCCCCC1", "note": "(stereo not drawn)", "Potency": "inactive"}
{"smiles": "O=C(NCc1cccnc1)/C(=C/c1ccc([N+](=O)[O-])cc1)NC(=O)c1ccccc1", "Potency": "inconclusive: 141 µM [inhibitor, single point]"}
{"smiles": "CCOc1ccc(N(CC(=O)Nc2ccc(C)cc2)S(C)(=O)=O)cc1", "Potency": "inactive"}
{"smiles": "CC(=O)NCCn1c(SCc2ccc(C)cc2)nc2ccccc2c1=O", "Potency": "inactive"}
{"smiles": "COc1cccc(-c2ccc3ncnc(N(C)Cc4ccco4)c3c2)c1", "Potency": "inconclusive: 3.55 µM [inhibitor, single point] and inconclusive: 39.8 µM [inhibitor, partial curve, poor fit]"}
{"smiles": "Cc1nc(S(=O)(=O)N2CCCCC2)c(C#N)c(C)c1Cl", "Potency": "inconclusive: 112 µM [inhibitor, partial curve, poor fit]"}
{"smiles": "CCOC(=O)c1c(C)[nH]c(C(=O)Nc2ccc(NC(C)=O)cc2)c1C", "Potency": "inconclusive: 50.1 µM [inhibitor, partial curve, poor fit]"}
{"smiles": "O=C(NCCCn1cccn1)c1cc(COc2ccccc2)on1", "Potency": "inconclusive: 89.1 µM [inhibitor, single point]"}
{"smiles": "O=C(NCc1ccccc1)c1ccc(CSc2nc3cccnc3n2Cc2ccccc2F)cc1", "Potency": "inconclusive: 0.891 µM [inhibitor, full curve]"}
{"smiles": "CCc1ccc2c(CN3CCN(Cc4ccccc4)CC3)cc(=O)oc2c1", "Potency": "inconclusive: 35.5 µM [inhibitor, partial curve, poor fit]"}
{"smiles": "COc1ccccc1NS(=O)(=O)c1ccc(C(=O)N2CCN(c3ccccc3)CC2)cc1", "Potency": "inconclusive: 141 µM [inhibitor, single point]"}
{"smiles": "CCN(CC)CCCN(C(=O)c1ccccc1C)c1nc(-c2ccc(OC)cc2)cs1", "Potency": "inconclusive: 7.94 µM [inhibitor, full curve]"}
{"smiles": "Oc1c(C(Nc2cccc(C(F)(F)F)c2)c2ccncc2)ccc2cccnc12", "note": "(stereo not drawn)", "Potency": "inconclusive: 39.8 µM [inhibitor, partial curve]"}
{"smiles": "O=C(O)CCN1CCNCC1", "Potency": "inconclusive: 31.6 µM [inhibitor, single point]"}
{"smiles": "O=C(OCC(O)C(O)C(O)C(SCc1ccccc1)SCc1ccccc1)c1ccccc1", "note": "(stereo not drawn)", "Potency": "inconclusive: 89.1 µM [inhibitor, partial curve, poor fit]"}
{"smiles": "O=C(CSc1n[nH]c(-c2ccncc2)n1)Nc1cccc(C(F)(F)F)c1", "Potency": "inconclusive: 56.2 µM [inhibitor, partial curve, poor fit]"}
{"smiles": "Cc1ccc(Nc2cc(C)nc(Nc3ccc(NC(=O)CC(C)C)cc3)n2)cc1", "Potency": "inconclusive: 44.7 µM [inhibitor, partial curve, poor fit]"}
{"smiles": "CCN(Cc1ccc(OC)c(F)c1)C(=O)c1nn(C)c(=O)c2ccccc12", "Potency": "inactive"}
{"smiles": "Cc1cccc(C)c1NC(=O)Nc1cccs1", "Potency": "inconclusive: 35.5 µM [inhibitor, partial curve, poor fit]"}
{"smiles": "COc1ccc2[nH]c(C)c(CCN(Cc3cccs3)C(=S)Nc3ccccc3OC)c2c1", "Potency": "inconclusive: 79.4 µM [inhibitor, single point]"}
{"smiles": "Brc1ccc(CNCCCn2ccnc2)cc1", "Potency": "inconclusive: 56.2 µM [inhibitor, partial curve, poor fit]"}
{"smiles": "O=c1c(O)c(-c2ccc(O)cc2O)oc2cc(O)cc(O)c12", "Potency": "inconclusive: 10.9 µM [inhibitor, partial curve] and inconclusive: 56.2 µM [inhibitor, partial curve, poor fit] and inconclusive: 10 µM [inhibitor, full curve, poor fit]"}
{"smiles": "Cn1cc(NC(=O)Nc2ccc(C(F)(F)F)cc2)c(C(F)(F)F)n1", "Potency": "inconclusive: 31.6 µM [inhibitor, single point]"}
{"smiles": "Nc1ccc(-c2nnc(-c3ccc(-c4ccccc4)cc3)o2)cc1", "Potency": "inconclusive: 126 µM [inhibitor, partial curve, poor fit]"}
{"smiles": "COc1ccc2c(C#CCCO)c(-c3ccc(S(C)(=O)=O)cc3)sc2c1", "Potency": "inconclusive: 44.7 µM [inhibitor, partial curve, poor fit]"}
{"smiles": "O=C(CN1C(=O)NC2(CCc3ccccc32)C1=O)Nc1cccc(Cl)c1", "note": "(stereo not drawn)", "Potency": "inactive"}
{"smiles": "Cc1ccc(N/N=C/c2cccc(/C=N/Nc3ccc(C)c(Cl)c3)c2)cc1Cl", "Potency": "inconclusive: 6.31 µM [inhibitor, full curve, poor fit]"}
{"smiles": "O=C(CCc1c[nH]c2ccccc12)N1CCN(S(=O)(=O)c2ccc([N+](=O)[O-])cc2)CC1", "Potency": "inconclusive: 79.4 µM [inhibitor, single point]"}
{"smiles": "CCc1ccccc1NC(=O)Nc1cccc(-c2ccc(N3CCOCC3)nn2)c1", "Potency": "inconclusive: 14.1 µM [inhibitor, full curve]"}
{"smiles": "O=C1C(Cl)=C(NCc2ccco2)C(=O)c2ccccc21", "Potency": "inconclusive: 35.5 µM [inhibitor, partial curve]"}
{"smiles": "Cc1ccc(-c2[nH]c(=S)[nH]c(=O)c2C#N)cc1", "Potency": "active: 15.8 µM"}
{"smiles": "Fc1ccc2ncc3c(-c4ccccc4)n[nH]c3c2c1", "Potency": "inconclusive: 126 µM [inhibitor, partial curve, poor fit]"}
{"smiles": "CN(CCOc1ccc(Cl)cc1)c1ccc(S(=O)(=O)N2CCCCC2)cn1", "Potency": "inconclusive: 126 µM [inhibitor, single point]"}
{"smiles": "CC(C)C(=O)NC(=S)Nc1ccc(S(=O)(=O)N2CCCC2)cc1", "Potency": "inconclusive: 50.1 µM [inhibitor, partial curve, poor fit]"}
